Assay results as given in paper PMC7504466, “In-Vitro and In-Silico Evaluations of Heterocyclic-Containing Diarylpentanoids as Bcl-2 Inhibitors Against LoVo Colorectal Cancer Cells” (Molecules, 2020).

Tested on: human CRC cell lines (T84, SW620, LoVo, HT29, NCI-H508, RKO, LS411N)
Test: MTT cytotoxicity assay, panel of KRAS- and BRAF-mutated CRC cell lines
Type: cell-based
Conditions: NHDF versus CRC cell lines, 72 h
Procedure: The in-vitro cytotoxic activity of the synthesized compounds on seven human CRC cell lines including KRAS (T84, SW620, LoVo) and BRAF (HT29, NCI-H508, RKO and LS411N) mutated cells were determined by MTT assay as previously described. The IC50 values obtained are summarized in Table 2 in which 5-FU and normal human dermal fibroblasts (NHDF) were used as controls. Meanwhile, a heatmap (Figure 3) was also generated using GraphPad Prism v7.0 (GraphPad Software, La Jolla, CA, USA) to visualize the cytotoxic trends of synthesized compounds graphically.
A panel of KRAS (T84, SW620 and LoVo) and BRAF (HT29, NCI-H508, RKO and LS411N) mutated human CRC cell lines were grown in Dulbecco’s modified Eagle’s medium (DMEM) containing 10% fetal bovine serum (FBS) and 1% penicillin/streptomycin at 37 °C under 5% CO2 while NHDF cells were cultured in DMEM with 5% FBS under the same condition. The culture medium was replenished every two days until the cells reached 80–90% confluency for further usage. All cell lines (T84, ATCC®CCL-248™; SW620, ATCC®CCL-227™; LoVo, ATCC®CCL-229™; HT-29, ATCC®HTB-38; NCI-H508, ATCC®CCL-253™; RKO, ATCC®CRL-2577; LS411N, ATCC®CRL-2159; NHDF, ATCC® PCS-201-010™) were purchased from American Type culture Collections (ATCC, Manassas, VA, USA).
LoVo cells (1.5–5 × 10^3 cells/well) were seeded into a 96 well plate and incubated at 37 °C and 5% CO2 atmosphere for 24 h. On the following day, the cell media were replaced with 100 µL of test compounds at various concentration. The final concentration of DMSO in the well is 0.1%. After 72 h of incubation, culture medium was removed and 100 µL of MTT (thiazoyl blue tertrazolium bromide) solution (0.5 mg/mL in culture media) was added. The resultant plates were then further incubated at 37 °C for 4 h. Upon completion, the MTT solution was removed and the formazan salts formed were dissolved in 100 µL of DMSO. The absorbance was recorded with a microplate reader at 570 nm. The IC50 values of tested compounds were calculated from three independent experiments.

Structure (SMILES)	Chemo-Therapeutic Index
O=C1C(=Cc2ccc(F)c(F)c2)CSCC1=Cc1ccc(F)c(F)c1 [Compound 2f, 3,5-Bis(3,4-difluorobenzylidene)tetrahydro-4H-thiopyran-4-one]	0.3–0.8
COc1ccccc1C=C1CSCC(=Cc2ccccc2OC)C1=O [Compound 2d, 3,5-Bis(2-methoxybenzylidene)tetrahydro-4H-thiopyran-4-one]	1.4–1.8
O=C1C(=Cc2ccc(F)c(F)c2)CCCC1=Cc1ccc(F)c(F)c1 [Compound 2c, 2,6-Bis(3,4-difluorobenzylidene)cyclohexanone]	2.3–5.0
